# Results: PubChem BioAssay AID588499 (NMMLSC, 2011)
# Among all 360,000 compounds or so, about 610 (0.17%) were called active. The shares of active, inactive and inconclusive entries below differ from those in the screen. No stated cut-off is given here; in the data, active means inhibition above about 30%; inconclusive means no clear call, values can overlap the other calls; inactive means below that.
# Tested on: Botulinum neurotoxin type A light chain protease (Clostridium botulinum A str. ATCC 3502)
# Experiment: blockers of BoNT/A LC substrate cleavage – biochemical, flow cytometry, MLPCN library, primary screen (AID 588499); further: plate controls were buffer without enzyme for full effect and enzyme alone for no effect
# Details: multiplex microsphere protease substrate cleavage, at 10 µM, hits give high values
row,SMILES,inhibition
1,O=C(COC(=O)c1ccc2ncsc2c1)NCc1ccccc1Cl,inconclusive: 1.2%
2,O=C(CSc1nccc(-c2cccs2)n1)Nc1cccc(Cl)c1Cl,inconclusive: -0.3%
3,O=C(c1ccccc1)c1c2c(cc3sc4ccccc4[n+]13)-c1cccc3cccc-2c13,active: 73.3%
4,COc1ccc2c(c1)C(C)=CC(C)(C)N2C(=O)C(C)N1C(=O)c2ccccc2C1=O (stereo not drawn),inconclusive: -1.3%
5,O=C(CSc1nncs1)NCCNC(=O)CSc1nncs1,inconclusive: -0.2%
6,Cc1occc1C(=O)N1CCC2(CC1)OCCO2,inconclusive: -1.8%
7,Cc1ccc(N2C(=O)C3ON(c4ccccc4)C(CC(C)C)C3C2=O)cc1 (stereo not drawn),inconclusive: -43.6%
8,CCN(Cc1cc2cc(OC)ccc2[nH]c1=O)C(=O)c1ccncc1,inconclusive: 3.9%
9,Clc1ccc(COn2c(-c3ccc(Cl)cc3)nc3ccccc32)cc1,inconclusive: -3.5%
10,CCOc1cc(C2NC(=O)NC(O)(C(F)(F)F)C2C(=O)c2ccccc2)ccc1OC (stereo not drawn),inconclusive: -56.1%
11,O=C(NC1CC(=O)N(c2ccccc2)C1)C1CC1 (stereo not drawn),inconclusive: -1.7%
12,CC1(/[N+]([O-])=C/c2ccc(F)cc2)CCCCC1=O (stereo not drawn),inconclusive: -38.3%
13,Cc1ccccc1NC(=O)CSc1nc(N2CCCCC2)nc(N2CCCCC2)n1,inconclusive: -1.2%
14,CCNC(=S)NNC(=O)c1cc(CC(C)C)nc2ccccc12,inconclusive: 1.6%
15,Cn1c(NCc2ccco2)nc2ccccc21,inconclusive: 14.8%
16,CCOc1ccc(CN(C)c2ccc(S(=O)(=O)N3CCN(C)CC3)cc2[N+](=O)[O-])cc1OC,inactive: -1.3%
17,Cc1cccc(C(=O)OC(C)C(=O)N2CCN(Cc3ccccc3)CC2)c1 (stereo not drawn),inactive: -27%
18,Cn1c(=O)c2c(ncn2CC(COCc2ccccc2)OCc2ccccc2)n(C)c1=O (stereo not drawn),inconclusive: 8.7%
19,CC1=[N+](C)N(c2ccccc2)C(=O)C1N=Cc1c(Cl)cccc1Cl (stereo not drawn),inactive: -1.2%
20,Cc1onc(-c2ccccc2Cl)c1C(=O)N1CCN(c2ccccc2)CC1,inconclusive: 6.8%
21,CCc1ccc(CCC(=O)Nc2sc(C)c(C)c2C(=O)OC)o1,inactive: -1%
22,CN(C)CCSCc1nnc2n1-c1ccc(Cl)cc1C(c1ccccc1Cl)=NC2,inconclusive: 4.2%
23,COc1cccc(CN(C)C(=O)CSc2nc3ccccc3[nH]2)c1OC,inactive: -1.2%
24,CCC(Oc1ccccc1F)C(=O)Nc1ccc2c(c1)n(C)c(=O)n2C (stereo not drawn),inactive: 2%

row,SMILES,inhibition
1,COCCCNC(=O)c1ccccc1-c1cc(C)no1,inconclusive: -52.8%
2,COc1ccc(-c2nc(SC(CC(=O)NCCN3CCOCC3)c3cccs3)n[nH]2)cc1 (stereo not drawn),inactive: -0.1%
3,O=C(NCCC1CCCC1)c1cccs1,inconclusive: 7.8%
4,CCOc1cccc(CNC2CN3CCC2CC3)c1 (stereo not drawn),inconclusive: -1.5%
5,Cc1c(Cl)ccc2c1NC(=O)[C@]21N[C@@H](Cc2ccccc2)[C@H]2C(=O)N(c3ccc(F)cc3)C(=O)[C@H]21,inconclusive: -1.3%
6,CC12CCC(C(=O)Nc3c(Cl)cccc3Cl)(C(Br)C1=O)C2(C)C (stereo not drawn),inactive: 0%
7,Cc1nc2n(COCCO)cnn2c(=O)c1Br,inactive: -0.1%
8,O=C(Nc1ccc(C(=O)N2CCCC2)cc1)c1ccccc1F,inactive: -2.6%
9,O=C(Cn1cc(C(=O)c2cccs2)c2ccccc21)NC1CCCCC1,inconclusive: -261%
10,Cc1nn(-c2nnc(NC3CCCCC3)nn2)c(C)c1Br,active: 34.7%
11,CCC(=Nc1ccc2c(c1)CCC2)c1c(O)n(C2CCCCC2)c(=O)[nH]c1=O,inconclusive: 0.6%
12,CCOC(=O)c1cnn(CCOC(=O)C(C)(C)C)c1NC(=O)C(C)(C)C,active: 36%
13,Cc1ccc(C(=O)COC(=O)C2C3C=CC(C3)C2C(=O)OCC(=O)c2ccc(C)c(C)c2)cc1C (stereo not drawn),inconclusive: -0.9%
14,Cc1cc(C)c2ccc(=O)n(CC(=O)N/N=C/c3ccccc3Cl)c2n1,inconclusive: -19.6%
15,CN1CCN(c2ncc3c(n2)CC(c2ccccc2F)CC3=O)CC1 (stereo not drawn),inconclusive: -49.9%
16,CC(C)CCN=Cc1c(O)n(-c2ccccc2)c(=O)c2ccccc12,inconclusive: 0.4%
17,O=Cc1ccc(-c2ccccc2C(=O)O)o1,inactive: 4%
18,NNC(=O)CCN(Cc1ccco1)S(=O)(=O)c1ccc(Cl)cc1,inconclusive: 11.5%
19,CSCCC(NS(=O)(=O)c1ccccc1F)C(=O)Nc1cccc(C)n1 (stereo not drawn),inactive: -5.2%
20,O=C(O)CSc1nnc(-c2cccc(S(=O)(=O)N3CCOCC3)c2)n1-c1ccc(F)cc1,inconclusive: -3%
21,Cc1ccc2c(c1)nc1c3ccccc3nc(-c3ccccc3N)n21,inactive: -0.1%
22,CC(NCCC1(C(C)C)CCOC(C)(C)C1)c1cccs1 (stereo not drawn),inconclusive: 4.9%
23,COc1ccc(-c2csc(C(C)(O)c3cccnc3)n2)cc1 (stereo not drawn),inactive: 0.2%
24,CCCC(=O)NC(c1ccc(OC)c(OC)c1)c1c(O)ccc2ccccc12 (stereo not drawn),inconclusive: -1.1%

# Ordered by length of the SMILES (smallest number first): part of the list above.
row,SMILES,inhibition
3,O=C(NCCC1CCCC1)c1cccs1,inconclusive: 7.8%
24,CCC(Oc1ccccc1F)C(=O)Nc1ccc2c(c1)n(C)c(=O)n2C (stereo not drawn),inactive: 2%
5,Cc1c(Cl)ccc2c1NC(=O)[C@]21N[C@@H](Cc2ccccc2)[C@H]2C(=O)N(c3ccc(F)cc3)C(=O)[C@H]21,inconclusive: -1.3%

# 2 compounds drawn at random from those above, as already listed:
row,SMILES,inhibition
10,CCOc1cc(C2NC(=O)NC(O)(C(F)(F)F)C2C(=O)c2ccccc2)ccc1OC (stereo not drawn),inconclusive: -56.1%
7,Cc1nc2n(COCCO)cnn2c(=O)c1Br,inactive: -0.1%

# Following part

row,SMILES,inhibition
1,O=C(c1ccc(N2C(=O)c3ccccc3C2=O)cc1)N1CCN(S(=O)(=O)c2ccccc2F)CC1,inactive: -0.2%
2,COc1cc(CCNC2=CC(=O)c3ncccc3C2=O)ccc1O,inactive: -1.3%
3,COc1cc2cc(CN(CCO)S(=O)(=O)c3ccccc3Cl)c(=O)[nH]c2cc1OC,inconclusive: -0.9%
4,CCn1ccc(C(=O)Nc2ccc3c(c2)CCC3)n1,inactive: 3.5%
5,CCOc1ccc(/C=C(\C#N)C(=O)Nc2ccccn2)cc1,inconclusive: 3.9%
6,CCN(CC)C(=O)CSc1nc2c(sc(=S)n2CC)c(=O)n1-c1ccccc1,inconclusive: -0.8%
7,Cc1cc(C(=O)COc2ccc(-c3nnco3)cc2)c(C)n1Cc1ccccc1,inconclusive: 0.5%
8,CC1CCC2C(=O)N(c3ccccc3OC(=O)c3ccccc3)C(=O)C2C1 (stereo not drawn),inconclusive: 28.7%
9,COc1cc(NC(=O)c2ccc(F)cc2)c(OC)cc1Cl,inactive: 1.4%
10,COc1ccc(C(=O)C[n+]2cc(Br)cc3ccccc32)cc1[N+](=O)[O-],active: 116%
11,Cc1ccc2nc3c(c(Nc4ccccc4)c2c1)CCC3,inconclusive: 1.6%
12,COc1ccc(-c2cnn3c(N)c(S(=O)(=O)C(C)(C)C)cnc23)cc1,inconclusive: 1.7%
13,Cc1ccc(-c2csc3nc(C)n(N)c(=O)c23)o1,inconclusive: 2.4%
14,Cc1ccc(-n2nnnc2SCC(=O)NCCC2=CCCCC2)c(C)c1,inactive: 0%
15,CN=C1SC(CC(=O)Nc2ccc(N3CCOCC3)cc2)C(=O)N1C (stereo not drawn),inconclusive: -6.1%
16,Cc1sc2nc(SCC(=O)NCCOCCO)n(C)c(=O)c2c1C,inactive: 3.1%
17,Cn1nc(-c2ccc(C(=O)N3CCN(CCO)CC3)cc2)c2ccccc2c1=O,inconclusive: 2.9%
18,Cc1ccc2c(c1)N(C(C)C(=O)NCCc1ccccc1)C(=O)CO2 (stereo not drawn),inconclusive: -0.9%
19,NC(=S)Nc1cc2ccccc2c2ccccc12,inconclusive: 1%
20,CCc1ccc(N=Nc2ccc(O)c3[nH]cnc23)cc1,inactive: 0%
21,Clc1ccccc1CSc1snnc1-c1ccccc1,inconclusive: -2.1%
22,CCOC(=O)N1CCN(S(=O)(=O)c2ccc(C)c(C)c2)CC1,inconclusive: 0.4%
23,Cc1cc(C)cc(OCC(=O)N2CCCCCC2)c1,inconclusive: 6.5%
24,COc1cc(/C=N\Nc2nc3ccccc3o2)cc(OC)c1OC,inconclusive: 5.8%

row,SMILES,inhibition
1,COC(=O)c1ccc(-n2cncn2)c(F)c1,inconclusive: -1.1%
2,O=C(NNc1ccccc1C(F)(F)F)c1cccs1,inconclusive: 9.1%
3,Cn1c(COc2ccc(Cl)cc2)nnc1SCC(=O)NC1CCCC1,inactive: 0.9%
4,CC(C)(CO)NC(=O)C12CC3CC(CC(Br)(C3)C1)C2,inconclusive: 2.2%
5,CN(Cc1ccccc1)C(=O)NC1CCCCC1,inconclusive: -7.7%
6,O=C1C2ON(c3ccccc3)C(c3ccncc3)C2C(=O)N1c1ccc(Br)cc1 (stereo not drawn),inconclusive: -0.4%
7,CC[n+]1c(/C=C/N(C)c2ccccc2)sc2ccc(Cl)cc21,active: 59%
8,C/C(=N\NC(=O)Cn1nc(C)c([N+](=O)[O-])c1C)c1ccc(Cl)s1,inconclusive: 1.1%
9,O=C(NCCSCc1ccco1)Nc1cc(Cl)cc(Cl)c1,inconclusive: -3.4%
10,Cc1ccc(C2=NN3C(=O)c4ccccc4C3C2)cc1 (stereo not drawn),inconclusive: 16.3%
11,Fc1cccc(CN2CCC(Cc3ccccc3)CC2)c1,inconclusive: -6.5%
12,COc1cccc(N/C(SC)=C(/C#N)C(N)=O)c1,inactive: -1.7%
13,O=C(N/N=C/c1cc(Cl)cc([N+](=O)[O-])c1O)c1cccc(S(=O)(=O)N2CCOCC2)c1,inconclusive: -4%
14,C=C1N(c2cccc(Cl)c2)C(=O)OC1(C)C,inactive: -0.4%
15,O=[N+]([O-])c1cccc(S(=O)(=O)NCCOc2cccc3cccnc23)c1,inconclusive: 11.9%
16,Cc1nnsc1-c1onc(C)c1C(=O)Nc1cc(Cl)cc(Cl)c1,inconclusive: -2.2%
17,COc1ccc(-c2noc(-c3ccc(Br)o3)n2)cc1,inconclusive: 10.1%
18,COc1ccc(C(=O)N/C=C/n2cnc3cc(C(F)(F)F)ccc32)cc1,inactive: -1%
19,Cc1cccc(OCc2nnc(SCC(=O)Nc3nccs3)o2)c1,inconclusive: -27.5%
20,COc1cccc(/C=c2/s/c(=C(\C#N)C(=O)N3CCOCC3)n(-c3ccccc3)c2=O)c1,inconclusive: 3.5%
21,COc1ccccc1CNC(=O)/C=C/C(=O)O,inconclusive: -7.1%
